We go through one molecule from publication PMC2807035.

No constants are given. Whether binding was seen depends on the method and setting. Where a sequence is shown, tags or fusion partners need not be part of it.

For the assay, the target named is DS domain of human DDR2 (His-tagged, residues 26-190) (human) (UniProt Q16832). The experiment in a line: SEC; analytical size exclusion chromatography, 24 ml Superdex 75, 20 mM MES, 100 mM NaCl pH 6.5; 16 nmol DS domain in PBS alone or mixed with varying amounts of collagen peptide (two-fold molar excess for the complex), incubated 30 min in 0.5 ml; both purified.

B1: DS domain of human DDR2 (His-tagged, residues 26-190) (domain or fragment, UniProt Q16832 26-190)
chain: NPAICRYPLGMSGGQIPDEDITASSQWSESTAAKYGRLDSEEGDGAWCPEIPVEPDDLKEFLQIDLHTLHFITLVGTQGRHAGGHGIEFAPMYKINYSRDGTRWISWRNRHGKQVLDGNSNPYDIFLKDLEPPIVARFVRFIPVTDHSMNVCMRVELYGCVWLDG
As for B1, the binding result is reported as “no binding”.
